For at least one entry, the source does not settle the construct or the ends of the probe. Weaker means in comparison with the reference protein, sequence or condition of that experiment.
Test system: INTAC complex (Integrator-PP2A) (human)
Assay: EMSA
Conditions: INTAC alone; EMSA: 100 nM Cy3 probe, 20 mM Tris-HCl pH 7.5, 50 mM NaCl, 5 mM MgCl2, 0.2 mM EDTA, 1 mM DTT, on ice 30 min; 6% native PAGE, 0.5x TBE, cold room; recombinant protein; label: 3' Cy3; single-stranded DNA

## TTTTTTTTTTTTTTTTTTTTTTTTTTTTTTTTTTTTTTTTTTTTTTTT [oligo (dT)48]
  binding result: binds more weakly
